{"source": "paper PMC7321161", "about": "“The Intriguing Effects of Substituents in the N-Phenethyl Moiety of Norhydromorphone: A Bifunctional Opioid from a Set of “Tail Wags Dog” Experiments” (Molecules, 2020)", "test_system": "squirrel monkeys", "experiment": "Squirrel monkey ventilation (whole-body plethysmograph, air or 5% CO2)", "format": "in vivo, Saimiri sciureus", "procedure": "Gas (either air or a 5% CO2 in air mixture) was introduced to and extracted from the chamber at a constant flow rate of 5 L/min. Experimental sessions consisted of 4–6 consecutive 30 min cycles, each comprising a 15 min exposure to air followed by a 15 min exposure to 5% CO2. Drug effects were determined using cumulative dosing procedures, and injections were administered following each exposure to 5% CO2. Respiratory rate and tidal volume (mL/breath) were recorded over 1 min periods and were multiplied to provide minute volumes. Data from the last three minutes of each exposure to air or CO2 were averaged and used for analysis of drug effects on ventilation.", "note": "“Also recorded” adds a separate entry of the source."}
{"smiles": "CN1CC[C@]23c4c5ccc(O)c4O[C@H]2[C@@H](O)C=C[C@H]3[C@H]1C5", "note": "[Morphine, reference compound]", "values": [{"measurement": "Effect on ventilation (minute volume) during exposure to 5% CO2 mixed in air (hypercapnia)", "result": "significantly reduced minute volume in 5% CO2; also recorded: significantly decreased ventilation"}, {"measurement": "Effect on respiratory rate or ventilation (minute volume) during exposure to air alone", "setting": "2i 0.003–0.1 mg/kg, morphine 0.03–3.0 mg/kg", "result": "neither 2i (0.003–0.1 mg/kg) nor morphine (0.03–3.0 mg/kg) had effects"}]}
